In publication PMC12887393:
Positions count from the first letter of the chain named. No constants are given. Whether binding was seen depends on the method and setting. Binding seen in cells or lysates may run through a third protein. For some assays here: A result given as binding can be weak or reduced; the word gives no strength. Where a sequence is shown, tags or fusion partners need not be part of it.

Legend:
[1] = target: T1, FLAG-tagged wild-type RAD51AP1 (RAD51-associated protein 1, isoform 2) (human) (UniProt Q96B01); assay: condition: only cells arrested in late G2/M phase by nocodazole; co-IP; anti-FLAG precipitates from lysates of cells released from a double thymidine block and arrested in late G2/M phase with nocodazole (80 ng/ml, 14 h); Western blot
T1 sequence: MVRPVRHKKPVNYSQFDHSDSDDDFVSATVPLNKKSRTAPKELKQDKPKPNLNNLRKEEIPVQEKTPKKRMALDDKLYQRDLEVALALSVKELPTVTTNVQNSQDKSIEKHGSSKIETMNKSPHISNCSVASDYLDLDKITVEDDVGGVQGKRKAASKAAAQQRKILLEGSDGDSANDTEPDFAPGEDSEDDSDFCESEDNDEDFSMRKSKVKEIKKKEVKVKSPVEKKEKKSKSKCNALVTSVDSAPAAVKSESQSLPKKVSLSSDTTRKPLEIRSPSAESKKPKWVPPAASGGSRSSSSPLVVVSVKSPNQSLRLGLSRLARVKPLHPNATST

[2] = target: T1, FLAG-tagged wild-type RAD51AP1 (RAD51-associated protein 1, isoform 2) (human); assay: co-IP; anti-FLAG precipitates from lysates of cells synchronized by a double thymidine block and released into early S phase (50 min); Western blot
[3] = target: T2, FLAG-tagged RAD51AP1-F3-S224A/S277A/S310A (residues 188-335) (human) (UniProt Q96B01); assay: as above
T2 sequence: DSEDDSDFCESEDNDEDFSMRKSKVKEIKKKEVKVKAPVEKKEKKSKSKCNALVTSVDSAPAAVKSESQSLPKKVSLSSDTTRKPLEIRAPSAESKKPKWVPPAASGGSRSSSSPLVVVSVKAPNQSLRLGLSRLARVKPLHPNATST

[4] = target: T3, FLAG-tagged RAD51AP1-F3 fragment (residues 188-335) (human) (UniProt Q96B01); assay: as above
T3 sequence: T2 sequence with A37S, A90S, A123S

[5] = target: T4, FLAG-tagged RAD51AP1-F3-S224A/S310A (residues 188-335) (human) (UniProt Q96B01); assay: as above
T4 sequence: T2 sequence with A90S

binding [1]: no binding
binding [2]: binds
binding [3]: binds
binding [4]: binds
binding [5]: binds
Substance: Cyclin A (human (endogenous in HeLa))
